Patent US20240246905A1 (University of Leicester, priority 2021, published 2024)
For at least one compound, name, drawing or mass did not settle the structure.

Tested on: MRSA 252, MSSA 476, S. aureus 15981, P. aeruginosa PA01 and E. coli DH5α
Assay: Disc diffusion primary screening, five strains (statements in words)
Assay type: cell-based
Conditions: 500 μg/mL
Description: As such, the minimum inhibition concentration (MICs) of biologically active compounds were further assessed using the broth dilution method against the S. aureus strains; MRSA 252 and MSSA 476 (Table 1). The results of both assays enabled key structural elements and functional groups required for the compounds to retain their antibiotic activity to be identified.
The antibiotic activity was determined using a Kirby-Bauer method according to Clinical Standard Laboratory Institute (CSLI) Guidelines (2017). Briefly, 180 μL of a 1 in 200 dilution (in LB or TSB) of overnight cultures of selected Gram negative and Gram positive bacteria were applied to an agar plate containing the solid growth medium, Mueller-Hinton agar (MHA). Sterile discs, inoculated with 50 μL of antibiotic, were first added to the agar plate before the plates were incubated for 24 hours at 37° C. Following incubation, the zone of inhibition (if it existed) was recorded.

N#CC=Cc1ccc(O)cc1 [Compound 3, (4-Hydroxyphenyl)acrylonitrile]
antibiotic activity in disc diffusion assays (in words): no antibiotic activity
